Where a name gives a salt, the structure may show the parent alone. Read-outs that look alike come from different tables or passages of the source. Hit rate of the full screen: of about 5,300 compounds, about 130 (2.5%) showed an effect of 50% or more. This is one part of the list.
Test system: M. mycetomatis strain mm55
Conditions: primary screen, metabolic activity vs growth control, 96 h, 2 µM, inhibitor
[1] = Madurella mycetomatis metabolic activity at 2µM (%)

SMILES	% viability [%]	% viability [1] [%]
CCCn1c(=O)c2[nH]c(-c3cnn(Cc4cccc(C(F)(F)F)c4)c3)nc2n(CC)c1=O [ONC0001389, gs6201]	85.49	
Fc1ccc(-c2nc(-c3c(F)cccc3F)[nH]c2-c2ccncc2)cc1 [ONC0000887, ta01]	46.48	
CC(C)(C)c1ccc(C(=O)Nc2cn3cc(-n4ccnc4)ccc3n2)cc1 [ONC0000079, tcask10]	88.09	
O=C(O)CN(CCN(CC(=O)O)CC(=O)O)CCN(CC(=O)O)CC(=O)O [ONC0005432, gadopenteticacid]		103.1
Nc1ncnc(Nc2ccc(Cl)cc2)n1 [ONC0002378, chlorazanil hydrochloride]	73.92	
Cc1csc(S(=O)(=O)N(CC(C)C)c2cc3c(cc2OCc2ccc(C(=O)O)cc2)CCC3)n1 [ONC0003040, ono8130]	89.59	
O=C(OC(C(F)(F)F)C(F)(F)F)N1CCC(C(O)(c2ccc3c(c2)OCO3)c2ccc3c(c2)OCO3)CC1 [ONC0001048, kml29]	83.75	
C[C@@H]1NC(=O)NC1=O [ONC0003683]	85.47	
CC(C)c1cccc2c1OC(C(C)C)C(=S)N2CC(=O)O (stereo not drawn) [ONC0002963, 228diisopropyl3thioxo23dihydro4h14benzoxazin4ylacetic acid]	79.38	
c1ccc2sc(SNC3CCCCC3)nc2c1 [ONC0003426, cbs ncyclohexyl2benzothiazolesulfenamide]	87.95	
C[C@H](NC(=O)CNC(=O)c1cccc(Cl)c1)c1ccccc1 [ONC0001233, jnj63533054]	74.74	
Cc1cccc(N2CC(CO)OC2=O)c1 (stereo not drawn) [ONC0005385, toloxatone]	91.79	
CC(=O)[C@@]12OC(C)(c3ccccc3)O[C@@H]1C[C@H]1[C@@H]3CCC4=CC(=O)CC[C@]4(C)[C@H]3CC[C@@]12C (stereo partly drawn) [ONC0002369, algestoneacetophenide]	99.76	
Cc1c(C(=O)NCCCO)cnn1-c1nc(-c2cccc(C(F)(F)F)c2)cs1 [ONC0001569, rwj50271]	88.88	
CCN(CCO)CCCOc1ccc2c(Nc3cc(CC(=O)Nc4cccc(F)c4)[nH]n3)ncnc2c1 [ONC0004662, barasertib azd1152hqpa]	61.77	
CC(=O)NC[C@H]1CN(c2ccc(N3CCN(C(=O)CO)CC3)c(F)c2)C(=O)O1 [ONC0000899, eperezolid]	53.13	
C=CC(=O)N1CCC(Oc2cc3c(Nc4ccc(Cl)c(Cl)c4F)ncnc3cc2OC)CC1 [ONC0005175, poziotinib hm78136b]	136.1	
Cc1c(Cc2ccc3ccccc3n2)c2cc(F)ccc2n1CC(=O)O [ONC0005065, oc000459]	61.99	
CCCCCCCCCCCCCCCC(=O)OC(CC(=O)O)C[N+](C)(C)C (stereo not drawn) [ONC0000226, palmitoylcarnitine]	67.54	
CCCCCCCCCCCCCCCC(=O)NCCO [ONC0005345, palmidrol 5mm]	120.7	

Single records, from the list above:
CCCCCCCCCCCCCCCC(=O)OC(CC(=O)O)C[N+](C)(C)C (stereo not drawn) [ONC0000226, palmitoylcarnitine] as listed: % viability [%]: 67.54
Nc1ncnc(Nc2ccc(Cl)cc2)n1 [ONC0002378, chlorazanil hydrochloride] as listed: % viability [%]: 73.92

(next part)

SMILES	% viability [%]	% viability [1] [%]
N[C@H](Cc1c[nH]cn1)C(=O)O [ONC0001939, dhistidine]	75.44	
CO[C@H]1O[C@@H]2O[C@@]3(C)CC[C@H]4[C@H](C)CC[C@@H]([C@H]1C)[C@@]24OO3 [ONC0000961, artemether]	58.3	
Cc1ccc(/C=C2/C(=O)C3(C)CCC2C3(C)C)cc1 (stereo not drawn) [ONC0003679, 34methylbenzylidenecamphor]	81.67	
CC(C)(C)c1cc(C(=O)/C(C#N)=N/Nc2cccc(Cl)c2)no1 [ONC0001420, esi09]	55.71	
O=c1c2ccccc2oc2ccccc12 [ONC0004769, xanthone genicide]	107.4	
N#Cc1ccc(N(Cc2ccc(Br)cc2)n2cnnc2)cc1 [ONC0001601, ym511]	78.87	
CC(C)(C)C(=O)NCCCC(=O)O [ONC0003709, pivagabine]	93.84	
CCOc1ccc2nc(SCCN3CCOCC3)[nH]c2c1 [ONC0001849, fabomotizole hydrochloride]	108.3	
Cn1ncc(Cl)c1-c1cc(C(=O)N[C@H](CN)Cc2cccc(F)c2)sc1Cl [ONC0002035, afuresertib]	61.08	
CS(=O)(=O)n1cc2c(n1)CN([C@H]1CO[C@H](c3cc(F)ccc3F)[C@@H](N)C1)C2 [ONC0001802, omarigliptin]	89.74	
O=C(O)CN(CCN(CC(=O)O)CC(=O)O)CCN(CC(=O)O)CC(=O)O [ONC0005602, pentetic acid]		107.7
CCCN(CCc1cccs1)[C@H]1CCc2c(O)cccc2C1 [ONC0001836, rotigotine]	86.85	
Clc1ccc(COC(Cn2ccnc2)c2ccc(Cl)cc2Cl)c(Cl)c1 (stereo not drawn) [Miconazole nitrate]	2.05	
CC(C)=CCC[C@](C)(O)[C@H]1CC[C@]2(C)[C@@H]1[C@H](O)C[C@@H]1[C@@]3(C)CC[C@H](O)C(C)(C)[C@@H]3[C@@H](O)C[C@]12C [ONC0002452, 20sprotopanaxatriol]	91.03	
NCCC(Oc1ccc(C(F)(F)F)cc1)c1ccccc1 (stereo not drawn) [ONC0003187, norfluoxetine]	88.77	
Cc1cc(=O)n(-c2ccccc2)n1C [ONC0003254, antipyrine]	103.3	
O=C(NCCN1CCC(n2c(=O)[nH]c3ccccc32)CC1)c1cc2cc(F)ccc2[nH]1 [ONC0001720, fipi]	82.41	
CN(C)C(=N)NCCC[C@H](N)C(=O)O [ONC0002981, asymmetricaldimethylarginine]	83.92	
CC(C)[C@@H]1CC[C@@H](C)C[C@@H]1P(=O)(c1ccccc1)c1ccccc1 [ONC0003951, dpo1]	47.19	
OC[C@H]1O[C@@H](c2ccc(F)c(Cc3cc4ccccc4s3)c2)[C@H](O)[C@@H](O)[C@@H]1O [ONC0001793, ipragliflozin]	91.04	

Look-ups from the results shown.
Value for Cc1cccc(N2CC(CO)OC2=O)c1 (stereo not drawn) [ONC0005385, toloxatone] under % viability [%]: 91.79
Value for CCOc1ccc2nc(SCCN3CCOCC3)[nH]c2c1 [ONC0001849, fabomotizole hydrochloride] under % viability [%]: 108.3

(further entries)

SMILES	% viability [%]	% viability [1] [%]
CC1CCc2c(N3CCC(O)CC3)c(F)cc3c(=O)c(C(=O)O)cn1c23 (stereo not drawn) [ONC0004121, nadifloxacin]	106.7	
CCCc1c(OCCCCc2nnn[nH]2)ccc(C(C)=O)c1O [ONC0003437, ly 171883]	65.16	
O=[N+]([O-])c1nccn1CC(O)CN1CCCCC1 (stereo not drawn) [ONC0003868, pimonidazole]	83.71	
NCC(=O)O [ONC0001985, glycine]	104.5	
Cc1ccc(-c2ncc(Cl)cc2-c2ccc(S(C)(=O)=O)cc2)cn1 [ONC0000788, etoricoxib]	72.83	
C[N+](C)(C)CCCCCNCC12CC3CC(CC(C3)C1)C2 [ONC0003367, iem1460]	82.77	
O=C(O)CCCCCCCCCCCCCCc1ccc(I)cc1 [ONC0005552, omega4iodophenylpentadecanoic acid]	101.6	
CCCC(=O)N1CCCN(c2nc(N)c3cc(OC)c(OC)cc3n2)CC1 [ONC0002101, bunazosin hydrochloride]	74.17	
O=C1Cc2cc(CCN3CCN(c4nsc5ccccc45)CC3)c(Cl)cc2N1 [ONC0004893, ziprasidone hydrochloride]	115.4	
CC(C)/N=c1\cc2n(-c3ccc(Cl)cc3)c3ccccc3nc-2cc1Nc1ccc(Cl)cc1 [ONC0004010, clofazimine]	59.81	
N[C@@H]1CON=C1O [ONC0000314, cycloserine d]	88.4	
OC[C@H]1O[C@@H]2O[C@H]3[C@H](O)[C@@H](O)[C@@H](O[C@H]4[C@H](O)[C@@H](O)[C@@H](O[C@H]5[C@H](O)[C@@H](O)[C@@H](O[C@H]6[C@H](O)[C@@H](O)[C@@H](O[C@H]7[C@H](O)[C@@H](O)[C@@H](O[C@H]8[C@H](O)[C@@H](O)[C@@H](O[C@H]1[C@H](O)[C@H]2O)O[C@@H]8CO)O[C@@H]7CO)O[C@@H]6CO)O[C@@H]5CO)O[C@@H]4CO)O[C@@H]3CO [ONC0004137, betacyclodextrin]	76.26	
O=C1[C@@H](Cc2ccc(O)cc2)N2C(=O)CCN(C(=O)NCc3ccccc3)[C@H]2CN1Cc1cccc2ccccc12 [ONC0004352, icg001]	93.48	
CC(=O)N(O)CCCCCNC(=O)CCC(=O)N(O)CCCCCNC(=O)CCC(=O)N(O)CCCCCN [ONC0005619, deferoxaminemesylate]	86.71	
C[C@H]1O[C@@H](O[C@H]2[C@@H](O)C[C@H](O[C@H]3[C@@H](O)C[C@H](O[C@H]4CC[C@]5(C)C6C[C@@H](O)[C@]7(C)[C@@H](C8=CC(=O)OC8)CC[C@]7(O)C6CC[C@@H]5C4)O[C@@H]3C)O[C@@H]2C)C[C@H](O)[C@@H]1O (stereo partly drawn) [ONC0000453, digoxin]	79.25	
N[C@H](CO)C(=O)O [ONC0001995, dserine]	67.69	
CCn1c(-c2nonc2N)nc2cncc(CNC3CCNCC3)c21 [ONC0000096, sb747651a]	75.74	
COc1ccc2nc3ccc(Cl)cc3c(SCCCN)c2c1 [ONC0004421, ldn209929]	119.6	
CN1CC(=O)NC1=N [ONC0002791, creatinine]	105.8	
O=C(Cc1ccc(-c2ccc(OCCN3CCOCC3)cc2)cn1)NCc1ccccc1 [ONC0005091, kx2391]	85.19	
